Test results reported in the supplement of paper PMC12067093, “Discovery and optimisation of a covalent ligand for TRIM25 and its application to targeted protein ubiquitination” (Chemical Science, 2025).
The list shows a part of the results.

Sequences of proteins named here, by UniProt entry; tags and fusion partners are left off. A change or cut given only in a name is not applied to a line headed by its entry.
UniProt Q01518, whole entry, looked up: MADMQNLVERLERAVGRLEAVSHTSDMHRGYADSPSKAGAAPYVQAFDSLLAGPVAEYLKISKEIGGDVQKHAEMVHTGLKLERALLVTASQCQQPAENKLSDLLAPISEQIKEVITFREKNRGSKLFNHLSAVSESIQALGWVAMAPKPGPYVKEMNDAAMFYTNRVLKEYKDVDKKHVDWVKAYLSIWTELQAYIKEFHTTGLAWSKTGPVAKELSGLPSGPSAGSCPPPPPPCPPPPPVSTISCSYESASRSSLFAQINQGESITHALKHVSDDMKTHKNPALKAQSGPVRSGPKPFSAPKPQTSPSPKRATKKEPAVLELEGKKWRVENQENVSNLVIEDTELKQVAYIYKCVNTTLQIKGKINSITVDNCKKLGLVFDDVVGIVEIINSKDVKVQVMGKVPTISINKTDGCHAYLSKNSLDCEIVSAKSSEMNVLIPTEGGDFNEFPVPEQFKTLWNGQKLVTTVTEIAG
UniProt P49368: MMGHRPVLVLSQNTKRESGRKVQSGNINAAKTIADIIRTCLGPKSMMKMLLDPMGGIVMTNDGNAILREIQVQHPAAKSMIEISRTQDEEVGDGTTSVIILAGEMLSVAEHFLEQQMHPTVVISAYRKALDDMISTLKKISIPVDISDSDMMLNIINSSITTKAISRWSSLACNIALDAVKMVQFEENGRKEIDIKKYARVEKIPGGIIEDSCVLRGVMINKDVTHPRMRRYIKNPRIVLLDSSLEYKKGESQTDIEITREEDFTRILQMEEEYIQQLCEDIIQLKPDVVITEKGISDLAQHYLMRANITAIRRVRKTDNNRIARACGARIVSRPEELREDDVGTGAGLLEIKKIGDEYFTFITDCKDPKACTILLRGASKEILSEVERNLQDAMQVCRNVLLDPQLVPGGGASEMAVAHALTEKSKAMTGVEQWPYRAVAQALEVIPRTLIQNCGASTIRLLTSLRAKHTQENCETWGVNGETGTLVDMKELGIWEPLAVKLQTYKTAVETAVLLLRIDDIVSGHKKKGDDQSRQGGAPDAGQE
UniProt Q9HC52: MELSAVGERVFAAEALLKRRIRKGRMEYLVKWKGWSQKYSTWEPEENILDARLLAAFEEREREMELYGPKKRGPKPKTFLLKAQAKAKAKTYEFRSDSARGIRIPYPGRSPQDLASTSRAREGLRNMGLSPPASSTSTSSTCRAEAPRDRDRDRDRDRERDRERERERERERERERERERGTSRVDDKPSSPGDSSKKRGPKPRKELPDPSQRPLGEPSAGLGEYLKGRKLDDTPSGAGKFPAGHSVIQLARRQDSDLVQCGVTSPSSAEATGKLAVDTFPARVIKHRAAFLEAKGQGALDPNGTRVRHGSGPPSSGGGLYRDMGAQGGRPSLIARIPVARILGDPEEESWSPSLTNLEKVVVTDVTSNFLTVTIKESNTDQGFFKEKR
UniProt P49662: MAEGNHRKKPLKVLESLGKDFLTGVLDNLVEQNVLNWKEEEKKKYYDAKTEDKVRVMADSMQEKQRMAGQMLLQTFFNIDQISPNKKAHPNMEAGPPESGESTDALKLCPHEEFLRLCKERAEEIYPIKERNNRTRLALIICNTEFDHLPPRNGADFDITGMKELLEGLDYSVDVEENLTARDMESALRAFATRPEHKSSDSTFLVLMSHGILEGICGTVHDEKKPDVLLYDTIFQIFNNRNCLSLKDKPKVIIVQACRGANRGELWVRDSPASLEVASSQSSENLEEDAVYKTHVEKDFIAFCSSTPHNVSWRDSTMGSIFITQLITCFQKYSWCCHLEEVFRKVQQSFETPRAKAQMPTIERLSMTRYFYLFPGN
UniProt P49589: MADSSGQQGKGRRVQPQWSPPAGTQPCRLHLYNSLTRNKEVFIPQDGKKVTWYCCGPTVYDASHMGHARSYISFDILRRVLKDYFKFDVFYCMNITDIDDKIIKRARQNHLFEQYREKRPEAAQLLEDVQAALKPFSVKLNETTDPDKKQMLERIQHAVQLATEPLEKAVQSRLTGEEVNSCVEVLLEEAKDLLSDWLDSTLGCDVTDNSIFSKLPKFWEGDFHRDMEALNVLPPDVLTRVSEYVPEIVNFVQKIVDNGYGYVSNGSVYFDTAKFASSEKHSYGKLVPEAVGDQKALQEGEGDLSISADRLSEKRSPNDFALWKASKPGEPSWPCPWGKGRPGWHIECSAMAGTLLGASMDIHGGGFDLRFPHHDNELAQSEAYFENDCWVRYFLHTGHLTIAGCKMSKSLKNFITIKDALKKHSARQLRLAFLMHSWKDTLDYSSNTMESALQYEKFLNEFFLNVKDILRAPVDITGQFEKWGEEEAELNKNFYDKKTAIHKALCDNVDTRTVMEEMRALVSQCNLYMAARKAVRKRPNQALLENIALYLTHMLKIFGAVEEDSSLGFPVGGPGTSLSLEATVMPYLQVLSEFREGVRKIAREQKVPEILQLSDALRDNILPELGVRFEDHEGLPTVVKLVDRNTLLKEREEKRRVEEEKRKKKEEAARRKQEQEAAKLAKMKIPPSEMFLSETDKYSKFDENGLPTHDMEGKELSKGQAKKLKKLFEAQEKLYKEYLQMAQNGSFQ
UniProt O60826, whole entry, looked up: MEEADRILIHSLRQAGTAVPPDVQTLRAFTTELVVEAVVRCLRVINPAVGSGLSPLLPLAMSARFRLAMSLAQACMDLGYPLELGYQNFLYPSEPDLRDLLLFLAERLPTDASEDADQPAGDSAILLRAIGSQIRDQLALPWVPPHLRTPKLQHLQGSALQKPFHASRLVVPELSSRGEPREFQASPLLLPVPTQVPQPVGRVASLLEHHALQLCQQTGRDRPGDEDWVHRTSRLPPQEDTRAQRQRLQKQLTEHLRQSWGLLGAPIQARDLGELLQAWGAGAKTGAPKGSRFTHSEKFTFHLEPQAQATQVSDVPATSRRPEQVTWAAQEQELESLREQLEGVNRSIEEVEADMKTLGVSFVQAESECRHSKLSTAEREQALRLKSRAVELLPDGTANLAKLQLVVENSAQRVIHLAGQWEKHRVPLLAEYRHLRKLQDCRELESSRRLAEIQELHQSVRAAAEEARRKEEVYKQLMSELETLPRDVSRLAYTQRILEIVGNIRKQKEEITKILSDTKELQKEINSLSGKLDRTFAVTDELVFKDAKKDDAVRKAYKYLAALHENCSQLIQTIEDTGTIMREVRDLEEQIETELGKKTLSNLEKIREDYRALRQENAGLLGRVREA
UniProt Q14790: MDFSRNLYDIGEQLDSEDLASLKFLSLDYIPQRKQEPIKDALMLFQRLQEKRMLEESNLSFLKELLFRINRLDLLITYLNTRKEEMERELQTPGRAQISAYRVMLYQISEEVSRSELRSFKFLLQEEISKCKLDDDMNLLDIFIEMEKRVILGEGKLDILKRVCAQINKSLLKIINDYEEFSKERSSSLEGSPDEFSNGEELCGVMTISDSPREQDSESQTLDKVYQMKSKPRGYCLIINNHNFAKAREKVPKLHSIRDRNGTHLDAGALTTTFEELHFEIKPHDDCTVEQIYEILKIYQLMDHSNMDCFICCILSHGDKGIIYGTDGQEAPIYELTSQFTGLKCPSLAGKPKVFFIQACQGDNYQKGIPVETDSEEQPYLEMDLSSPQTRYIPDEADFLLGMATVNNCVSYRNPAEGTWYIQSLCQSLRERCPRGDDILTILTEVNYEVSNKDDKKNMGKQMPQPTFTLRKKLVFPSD
UniProt Q9H257: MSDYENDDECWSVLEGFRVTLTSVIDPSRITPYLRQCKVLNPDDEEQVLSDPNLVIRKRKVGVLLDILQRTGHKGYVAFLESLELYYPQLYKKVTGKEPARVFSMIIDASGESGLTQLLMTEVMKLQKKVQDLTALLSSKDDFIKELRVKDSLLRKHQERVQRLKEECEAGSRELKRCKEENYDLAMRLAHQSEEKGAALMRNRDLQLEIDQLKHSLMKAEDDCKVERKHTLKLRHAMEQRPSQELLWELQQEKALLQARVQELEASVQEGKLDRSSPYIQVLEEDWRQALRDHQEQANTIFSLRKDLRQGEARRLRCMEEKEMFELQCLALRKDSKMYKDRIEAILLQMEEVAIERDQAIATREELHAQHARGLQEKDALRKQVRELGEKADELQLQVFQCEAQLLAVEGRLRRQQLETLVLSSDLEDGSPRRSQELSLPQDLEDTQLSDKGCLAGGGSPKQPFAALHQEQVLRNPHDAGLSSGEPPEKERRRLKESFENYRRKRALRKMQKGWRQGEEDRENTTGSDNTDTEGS
UniProt P47756, whole entry, looked up: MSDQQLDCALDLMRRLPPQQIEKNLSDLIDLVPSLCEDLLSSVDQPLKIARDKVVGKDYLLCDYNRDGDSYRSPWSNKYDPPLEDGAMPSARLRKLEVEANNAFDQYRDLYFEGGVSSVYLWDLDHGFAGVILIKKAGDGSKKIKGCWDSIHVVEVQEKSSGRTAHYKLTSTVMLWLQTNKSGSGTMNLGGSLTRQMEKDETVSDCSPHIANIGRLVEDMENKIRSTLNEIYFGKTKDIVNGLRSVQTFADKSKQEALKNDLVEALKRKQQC
UniProt P07384: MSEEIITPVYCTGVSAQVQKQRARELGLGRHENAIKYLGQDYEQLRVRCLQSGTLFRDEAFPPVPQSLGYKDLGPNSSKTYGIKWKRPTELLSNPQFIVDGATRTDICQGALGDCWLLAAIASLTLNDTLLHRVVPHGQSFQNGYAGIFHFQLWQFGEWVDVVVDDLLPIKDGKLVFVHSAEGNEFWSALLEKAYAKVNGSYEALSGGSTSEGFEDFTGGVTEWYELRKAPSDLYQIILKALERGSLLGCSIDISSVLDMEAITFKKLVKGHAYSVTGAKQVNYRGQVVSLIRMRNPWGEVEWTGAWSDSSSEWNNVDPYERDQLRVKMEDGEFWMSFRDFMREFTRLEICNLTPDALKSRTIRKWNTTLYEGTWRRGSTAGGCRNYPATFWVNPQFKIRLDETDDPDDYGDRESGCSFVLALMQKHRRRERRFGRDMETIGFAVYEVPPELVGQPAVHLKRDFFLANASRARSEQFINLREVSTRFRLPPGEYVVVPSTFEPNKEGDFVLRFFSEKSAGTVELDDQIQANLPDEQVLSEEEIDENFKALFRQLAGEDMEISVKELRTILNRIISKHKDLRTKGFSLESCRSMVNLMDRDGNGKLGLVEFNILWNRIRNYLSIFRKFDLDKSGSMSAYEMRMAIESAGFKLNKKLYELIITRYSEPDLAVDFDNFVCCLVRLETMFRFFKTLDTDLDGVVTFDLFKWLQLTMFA
UniProt P16152: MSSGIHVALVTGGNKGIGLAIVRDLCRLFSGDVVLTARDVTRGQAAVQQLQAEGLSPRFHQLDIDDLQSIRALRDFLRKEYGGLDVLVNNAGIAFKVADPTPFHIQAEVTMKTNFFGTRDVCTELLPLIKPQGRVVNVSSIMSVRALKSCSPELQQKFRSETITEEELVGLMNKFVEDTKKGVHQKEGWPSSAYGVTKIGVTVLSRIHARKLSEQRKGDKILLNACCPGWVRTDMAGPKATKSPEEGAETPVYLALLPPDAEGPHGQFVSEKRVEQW
UniProt P40123, whole entry, looked up: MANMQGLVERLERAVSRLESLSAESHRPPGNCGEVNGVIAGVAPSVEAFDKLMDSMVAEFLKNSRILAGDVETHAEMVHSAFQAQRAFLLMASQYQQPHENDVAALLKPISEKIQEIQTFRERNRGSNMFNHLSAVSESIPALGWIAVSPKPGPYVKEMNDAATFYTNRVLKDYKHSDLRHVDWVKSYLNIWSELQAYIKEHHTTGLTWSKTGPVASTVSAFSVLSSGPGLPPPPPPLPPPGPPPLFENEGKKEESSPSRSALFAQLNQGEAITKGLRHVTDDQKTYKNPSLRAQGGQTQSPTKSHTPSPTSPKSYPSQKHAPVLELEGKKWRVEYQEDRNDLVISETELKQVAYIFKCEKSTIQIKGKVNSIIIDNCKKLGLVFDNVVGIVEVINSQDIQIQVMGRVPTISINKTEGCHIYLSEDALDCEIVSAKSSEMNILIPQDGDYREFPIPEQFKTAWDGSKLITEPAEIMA
UniProt P40121: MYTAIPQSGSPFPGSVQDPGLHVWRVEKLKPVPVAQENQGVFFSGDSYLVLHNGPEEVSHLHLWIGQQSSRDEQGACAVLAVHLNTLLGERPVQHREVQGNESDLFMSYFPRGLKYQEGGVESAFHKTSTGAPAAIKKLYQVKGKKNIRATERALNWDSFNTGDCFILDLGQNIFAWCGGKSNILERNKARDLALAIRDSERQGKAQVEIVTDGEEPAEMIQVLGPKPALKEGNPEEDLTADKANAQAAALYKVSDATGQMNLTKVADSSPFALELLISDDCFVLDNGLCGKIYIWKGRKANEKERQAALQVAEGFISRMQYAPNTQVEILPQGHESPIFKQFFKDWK
UniProt P51946: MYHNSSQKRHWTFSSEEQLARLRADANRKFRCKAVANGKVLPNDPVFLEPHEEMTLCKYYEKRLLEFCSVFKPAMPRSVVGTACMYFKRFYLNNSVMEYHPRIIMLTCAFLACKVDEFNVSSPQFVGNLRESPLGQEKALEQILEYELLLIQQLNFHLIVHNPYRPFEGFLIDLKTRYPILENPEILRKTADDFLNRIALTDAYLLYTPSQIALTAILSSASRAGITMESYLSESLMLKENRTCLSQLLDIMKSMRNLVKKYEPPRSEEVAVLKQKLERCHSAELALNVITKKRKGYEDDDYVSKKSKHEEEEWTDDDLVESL

Compound: CC1Cc2ccccc2N1C(=O)C1CCCN(C1)C(=O)CCl (mixture of isomers) [TRIM25 ligand 11 (diastereomer mixture)]
Assay: probe-labelled cysteine peptide fold change vs DMSO (competition) (log2 fold change); higher = less target engagement (more negative = stronger competition)
Conditions: THP-1, incubation time: 4 h
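Further: competitive chemoproteomic profiling in live THP-1 cells with an iodoacetamide desthiobiotin (IA-DTB) probe, comparing probe-labelled peptide intensities in compound-treated cells against DMSO-treated controls.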

Target: CAP1_Q01518_427_NSLDCEIVSAK (UniProt Q01518)
- probe-labelled cysteine peptide fold change (10 µM): -0.0214
- probe-labelled cysteine peptide fold change (50 µM): -0.124

Target: CCT3_P49368_475_HTQENCETWGVNGETGTLVDMK (UniProt P49368)
- probe-labelled cysteine peptide fold change (10 µM): 0.016
- probe-labelled cysteine peptide fold change (50 µM): -0.0947

Target: CBX8_Q9HC52_261_RQDSDLVQCGVTSPSSAEATGK (UniProt Q9HC52)
- probe-labelled cysteine peptide fold change (10 µM): 0.151
- probe-labelled cysteine peptide fold change (50 µM): -0.171

Target: CASKIN2_Q8WXE0_185_VAQLLLNSHLCVALLEGEAKDPCDPNYTTPLHLAAK (UniProt Q8WXE0)
- probe-labelled cysteine peptide fold change (10 µM): 0.081
- probe-labelled cysteine peptide fold change (50 µM): -0.347

Target: CASP4_P49662_109_LCPHEEFLR (UniProt P49662)
- probe-labelled cysteine peptide fold change (10 µM): 0.0416
- probe-labelled cysteine peptide fold change (50 µM): 0.175

Target: CC2D1A_Q6P1N0_590_QQHEMCLNHSNQFTQLGNITETTKFEK (UniProt Q6P1N0)
- probe-labelled cysteine peptide fold change (10 µM): -0.186
- probe-labelled cysteine peptide fold change (50 µM): -0.079

Target: CCDC50_Q8IVM0_85_DLEQQDCEIAQEIQEK (UniProt Q8IVM0)
- probe-labelled cysteine peptide fold change (10 µM): -0.0746
- probe-labelled cysteine peptide fold change (50 µM): -0.201

Target: CARS_P49589_55_VTWYCCGPTVYDASHMGHAR (UniProt P49589)
- probe-labelled cysteine peptide fold change (10 µM): -0.00365
- probe-labelled cysteine peptide fold change (50 µM): -0.0089

Target: CCDC22_O60826_567_YLAALHENCSQLIQTIEDTGTIMR (UniProt O60826)
- probe-labelled cysteine peptide fold change (10 µM): 0.518
- probe-labelled cysteine peptide fold change (50 µM): 0.529

Target: CASP8_Q14790_309_IYQLMDHSNMDCFICCILSHGDK (UniProt Q14790)
- probe-labelled cysteine peptide fold change (10 µM): 0.0241
- probe-labelled cysteine peptide fold change (50 µM): -0.374

Target: CCT3_P49368_366_IGDEYFTFITDCK (UniProt P49368)
- probe-labelled cysteine peptide fold change (10 µM): 0.137
- probe-labelled cysteine peptide fold change (50 µM): -0.167

Target: CAPZA2_P47755_111_KEATDPRPCEVENAVESWR (UniProt P47755)
- probe-labelled cysteine peptide fold change (10 µM): -0.0477
- probe-labelled cysteine peptide fold change (50 µM): -0.0894

Target: CARD9_Q9H257_454_GCLAGGGSPK (UniProt Q9H257)
- probe-labelled cysteine peptide fold change (10 µM): -0.119
- probe-labelled cysteine peptide fold change (50 µM): -0.106

Target: CAT_P04040_232_LVNANGEAVYCK (UniProt P04040)
- probe-labelled cysteine peptide fold change (10 µM): 0.119
- probe-labelled cysteine peptide fold change (50 µM): 0.194

Target: CCP110_O43303_285_HCVSVIPDKPSLNK (UniProt O43303)
- probe-labelled cysteine peptide fold change (10 µM): 0.116
- probe-labelled cysteine peptide fold change (50 µM): -0.0678

Target: CAPRIN1_Q14444_226_PVCGTTYK (UniProt Q14444)
- probe-labelled cysteine peptide fold change (10 µM): -0.0226
- probe-labelled cysteine peptide fold change (50 µM): 0.131

Target: CBX8_Q9HC52_142_NMGLSPPASSTSTSSTCR (UniProt Q9HC52)
- probe-labelled cysteine peptide fold change (10 µM): -0.00929
- probe-labelled cysteine peptide fold change (50 µM): -0.325

Target: CARD6_Q9BX69_292_DVLLCLNMDR (UniProt Q9BX69)
- probe-labelled cysteine peptide fold change (10 µM): -0.153
- probe-labelled cysteine peptide fold change (50 µM): -0.113

Target: CAPZA2_P47755_141_EHYPNGVCTVYGK (UniProt P47755)
- probe-labelled cysteine peptide fold change (10 µM): -0.0378
- probe-labelled cysteine peptide fold change (50 µM): 0.0619

Target: CAPNS1_P04632_144_TDGFGIDTCR (UniProt P04632)
- probe-labelled cysteine peptide fold change (10 µM): -0.0564
- probe-labelled cysteine peptide fold change (50 µM): 0.074

Target: CBFB_Q13951_107_APMILNGVCVIWK (UniProt Q13951)
- probe-labelled cysteine peptide fold change (10 µM): -0.0282
- probe-labelled cysteine peptide fold change (50 µM): -0.0312

Target: CCS_O14618_246_QICSCDGLTIWEER (UniProt O14618)
- probe-labelled cysteine peptide fold change (10 µM): -0.0875
- probe-labelled cysteine peptide fold change (50 µM): -0.279

Target: CAPZB_P47756_62_DYLLCDYNR (UniProt P47756)
- probe-labelled cysteine peptide fold change (10 µM): -0.0337
- probe-labelled cysteine peptide fold change (50 µM): -0.0983

Target: CAPN1_P07384_11_SEEIITPVYCTGVSAQVQK (UniProt P07384)
- probe-labelled cysteine peptide fold change (10 µM): -0.164
- probe-labelled cysteine peptide fold change (50 µM): -0.105

Target: CBR1_P16152_226+227_ILLNACCPGWVR (UniProt P16152)
- probe-labelled cysteine peptide fold change (10 µM): -0.0256
- probe-labelled cysteine peptide fold change (50 µM): -0.171

Target: CCDC22_O60826_215_VASLLEHHALQLCQQTGR (UniProt O60826)
- probe-labelled cysteine peptide fold change (10 µM): 0.0578
- probe-labelled cysteine peptide fold change (50 µM): -0.0071

Target: CAP2_P40123_378_VNSIIIDNCKK (UniProt P40123)
- probe-labelled cysteine peptide fold change (10 µM): -0.0354
- probe-labelled cysteine peptide fold change (50 µM): 0.187

Target: CAP1_Q01518_416_VPTISINKTDGCHAYLSK (UniProt Q01518)
- probe-labelled cysteine peptide fold change (10 µM): -0.222
- probe-labelled cysteine peptide fold change (50 µM): -0.141

Target: CCDC25_Q86WR0_71_EVLMDCAHLVK (UniProt Q86WR0)
- probe-labelled cysteine peptide fold change (10 µM): 0.108
- probe-labelled cysteine peptide fold change (50 µM): 0.13

Target: CAPNS1_P04632_190_SGTICSSELPGAFEAAGFHLNEHLYNMIIR (UniProt P04632)
- probe-labelled cysteine peptide fold change (10 µM): 0.128
- probe-labelled cysteine peptide fold change (50 µM): 0.0236

Target: CAPG_P40121_77_DEQGACAVLAVHLNTLLGERPVQHR (UniProt P40121)
- probe-labelled cysteine peptide fold change (10 µM): 0.0244
- probe-labelled cysteine peptide fold change (50 µM): -0.0315

Target: CAPZA1_P52907_124_ESCDSALR (UniProt P52907)
- probe-labelled cysteine peptide fold change (10 µM): -0.0541
- probe-labelled cysteine peptide fold change (50 µM): 0.036

Target: CARD9_Q9H257_168_LKEECEAGSR (UniProt Q9H257)
- probe-labelled cysteine peptide fold change (10 µM): -0.0606
- probe-labelled cysteine peptide fold change (50 µM): 0.0755

Target: CASP8_Q14790_236_GYCLIINNHNFAK (UniProt Q14790)
- probe-labelled cysteine peptide fold change (10 µM): -0.0193
- probe-labelled cysteine peptide fold change (50 µM): -0.0456

Target: CARS_P49589_389_FPHHDNELAQSEAYFENDCWVR (UniProt P49589)
- probe-labelled cysteine peptide fold change (10 µM): 0.238
- probe-labelled cysteine peptide fold change (50 µM): 0.184

Target: CAPN1_P07384_417_ESGCSFVLALMQK (UniProt P07384)
- probe-labelled cysteine peptide fold change (10 µM): 0.0989
- probe-labelled cysteine peptide fold change (50 µM): 0.133

Target: CCNH_P51946_57_VLPNDPVFLEPHEEMTLCK (UniProt P51946)
- probe-labelled cysteine peptide fold change (10 µM): 0.0345
- probe-labelled cysteine peptide fold change (50 µM): 0.154

Target: CBX3_Q13185_177_LTWHSCPEDEAQ (UniProt Q13185)
- probe-labelled cysteine peptide fold change (10 µM): -0.129
- probe-labelled cysteine peptide fold change (50 µM): -0.248
